From patent US20260256792A1, “TREATMENT OF CHRONIC SPONTANEOUS URTICARIA BY ADMINISTERING (R)-2-[3-[4-AMINO-3-(2-FLUORO-4-PHENOXY-PHENYL)PYRAZOLO[3,4-D]PYRIMIDIN-1-YL]PIPERIDINE-1-CARBONYL]-4-METHYL-4-[4-(OXETAN-3-YL)PIPERAZIN-1-YL]PENT-2-ENENITRILE” (priority 2023, published 2026)
The source gives many values for each of these; only a part stands here.

Tested on: moderate-to-severe chronic spontaneous urticaria (CSU)
Test: Phase 2 CSU study: itch severity score over 7 days (ISS7)
Assay type: in vivo, human
Details: for Change from Baseline in ISS7 at Week 12, LS Mean Diff vs. placebo / Change from Baseline in ISS7 at Week 12, Mean / Change from Baseline in ISS7 at Week 12, LS Mean: 400 mg TID, Omalizumab-naïve population; for ISS7 % Change difference for rilzabrutinib vs. placebo LS Mean (95% CI) / ISS7 % Change from baseline LS Mean (SE) / ISS7 Change difference for rilzabrutinib vs. placebo LS Mean (95% CI) / ISS7 Change from baseline LS Mean (SE): Omalizumab-Naïve, outlier removed
Description: The study comprises a 12 week, randomized, double-blind, placebo-controlled, multi-center, dose-ranging efficacy and safety phase, followed by a 40 week open label extension (OLE) phase (see FIG. 1). The study consists of three phases and an optional OLE phase. […] Clinically, CSU is characterized by the spontaneous and recurrent appearance of pruritic hives. The proposed primary endpoints were the UAS7 at Week 12 in EU and EU reference countries and the ISS7 in the US. Regardless of where a participant was from, all assessments were the same. The UAS7 score is a composite score containing both the HSS7 and the ISS7. This allowed a global assessment of the two key components of urticaria: hives and itch. […] The UAS is a validated PRO measure. […] The daily UAS scores range from 0 to 6 point/day. […] Patients were to complete the UAS using the e-diary. […] The following secondary endpoints were to be analyzed using the same approach as for the primary endpoint: • Change from baseline in UAS7 at Week 4 • Change from baseline in UAS7 at Week 12 (for US and US reference countries) • Change from baseline in ISS7 at Week 12 (except US and US reference countries) • Change from baseline in HSS7 at Week 12

[1] = Baseline weight (kg) ≥72.9 (Median)

CC(C)(C=C(C#N)C(=O)N1CCC[C@@H](n2nc(-c3ccc(Oc4ccccc4)cc3F)c3c(N)ncnc32)C1)N1CCN(C2COC2)CC1 [rilzabrutinib, (R)-2-[3-[4-amino-3-(2-fluoro-4-phenoxy-phenyl)pyrazolo[3,4-d]pyrimidin-1-yl]piperidine-1-carbonyl]-4-methyl-4-[4-(oxetan-3-yl)piperazin-1-yl]pent-2-enenitrile]
Change from Baseline in ISS7 at Week 12, LS Mean Diff vs. placebo [1]: −4.15 | Change from Baseline in ISS7 at Week 12, Mean [1]: −9.44 | Change from Baseline in ISS7 at Week 12, LS Mean (Baseline weight (kg) ≥90): −10.90 | Change from Baseline in ISS7 at Week 12, LS Mean Diff vs. placebo (Baseline weight (kg) ≥90): −5.76 | Change from Baseline in ISS7 at Week 12, Mean (Baseline weight (kg) ≥90): −9.89 | Change from Baseline in ISS7 at Week 12, LS Mean (Gender Female): −9.80 | Change from Baseline in ISS7 at Week 12, LS Mean Diff vs. placebo (Gender Female): −3.50 | Change from Baseline in ISS7 at Week 12, Mean (Gender Female): −10.96 | Change from Baseline in ISS7 at Week 12, LS Mean (Gender Male): −6.50 | Change from Baseline in ISS7 at Week 12, LS Mean Diff vs. placebo (Gender Male): −2.95 | ISS7 % Change difference for rilzabrutinib vs. placebo LS Mean (95% CI) (400 mg BID, Week 1): −23.81 (−42.23, −5.39) % | ISS7 % Change from baseline LS Mean (SE) (400 mg BID, Week 1): −34.00 (5.73) % | ISS7 Change difference for rilzabrutinib vs. placebo LS Mean (95% CI) (400 mg BID, Week 1): −3.14 (−5.82, −0.46) | ISS7 Change from baseline LS Mean (SE) (400 mg BID, Week 1): −5.10 (0.83) | ISS7 % Change difference for rilzabrutinib vs. placebo LS Mean (95% CI) (400 mg BID, Week 2): −17.64 (−32.37, −2.92) % | ISS7 % Change from baseline LS Mean (SE) (400 mg BID, Week 2): −36.28 (5.56) % | ISS7 Change difference for rilzabrutinib vs. placebo LS Mean (95% CI) (400 mg BID, Week 2): −2.27 (−4.47, −0.08) | ISS7 Change from baseline LS Mean (SE) (400 mg BID, Week 2): −5.52 (0.83) | ISS7 % Change difference for rilzabrutinib vs. placebo LS Mean (95% CI) (400 mg BID, Week 3): −20.18 (−35.09, −5.26) % | ISS7 % Change from baseline LS Mean (SE) (400 mg BID, Week 3): −41.02 (5.61) % | ISS7 Change difference for rilzabrutinib vs. placebo LS Mean (95% CI) (400 mg BID, Week 3): −2.87 (−5.12, −0.61) | ISS7 Change from baseline LS Mean (SE) (400 mg BID, Week 3): −6.51 (0.85) | ISS7 % Change difference for rilzabrutinib vs. placebo LS Mean (95% CI) (400 mg BID, Week 4): −20.20 (−36.06, −4.35) % | ISS7 % Change from baseline LS Mean (SE) (400 mg BID, Week 4): −43.56 (5.98) % | ISS7 Change difference for rilzabrutinib vs. placebo LS Mean (95% CI) (400 mg BID, Week 4): −2.86 (−5.26, −0.46) | ISS7 Change from baseline LS Mean (SE) (400 mg BID, Week 4): −6.96 (0.91) | ISS7 % Change difference for rilzabrutinib vs. placebo LS Mean (95% CI) (400 mg BID, Week 5): −8.21 (−23.48, 7.06) % | ISS7 % Change from baseline LS Mean (SE) (400 mg BID, Week 5): −42.26 (5.73) % | ISS7 Change difference for rilzabrutinib vs. placebo LS Mean (95% CI) (400 mg BID, Week 5): −0.91 (−3.31, 1.48) | ISS7 Change from baseline LS Mean (SE) (400 mg BID, Week 5): −6.55 (0.90) | ISS7 % Change difference for rilzabrutinib vs. placebo LS Mean (95% CI) (400 mg BID, Week 6): −13.16 (−29.74, 3.43) % | ISS7 % Change from baseline LS Mean (SE) (400 mg BID, Week 6): −41.38 (6.22) % | ISS7 Change difference for rilzabrutinib vs. placebo LS Mean (95% CI) (400 mg BID, Week 6): −1.72 (−4.30, 0.87) | ISS7 Change from baseline LS Mean (SE) (400 mg BID, Week 6): −6.56 (0.97) | ISS7 % Change difference for rilzabrutinib vs. placebo LS Mean (95% CI) (400 mg BID, Week 7): −17.21 (−33.40, −1.02) % | ISS7 % Change from baseline LS Mean (SE) (400 mg BID, Week 7): −47.03 (6.06) % | ISS7 Change difference for rilzabrutinib vs. placebo LS Mean (95% CI) (400 mg BID, Week 7): −2.36 (−4.85, 0.14) | ISS7 Change from baseline LS Mean (SE) (400 mg BID, Week 7): −7.50 (0.93) | ISS7 % Change difference for rilzabrutinib vs. placebo LS Mean (95% CI) (400 mg BID, Week 8): −20.13 (−37.11, −3.16) % | ISS7 % Change from baseline LS Mean (SE) (400 mg BID, Week 8): −52.28 (6.33) % | ISS7 Change difference for rilzabrutinib vs. placebo LS Mean (95% CI) (400 mg BID, Week 8): −2.73 (−5.33, −0.13) | ISS7 Change from baseline LS Mean (SE) (400 mg BID, Week 8): −8.18 (0.97) | ISS7 % Change difference for rilzabrutinib vs. placebo LS Mean (95% CI) (400 mg BID, Week 9): −21.48 (−38.50, −4.47) % | ISS7 % Change from baseline LS Mean (SE) (400 mg BID, Week 9): −51.40 (6.37) % | ISS7 Change difference for rilzabrutinib vs. placebo LS Mean (95% CI) (400 mg BID, Week 9): −2.86 (−5.51, −0.21) | ISS7 Change from baseline LS Mean (SE) (400 mg BID, Week 9): −7.98 (0.99) | ISS7 % Change difference for rilzabrutinib vs. placebo LS Mean (95% CI) (400 mg BID, Week 10): −13.98 (−31.91, 3.95) % | ISS7 % Change from baseline LS Mean (SE) (400 mg BID, Week 10): −49.04 (6.78) % | ISS7 Change difference for rilzabrutinib vs. placebo LS Mean (95% CI) (400 mg BID, Week 10): −2.19 (−4.95, 0.57) | ISS7 Change from baseline LS Mean (SE) (400 mg BID, Week 10): −7.86 (1.04) | ISS7 % Change difference for rilzabrutinib vs. placebo LS Mean (95% CI) (400 mg BID, Week 11): −17.79 (−35.67, 0.10) % | ISS7 % Change from baseline LS Mean (SE) (400 mg BID, Week 11): −49.26 (6.74) % | ISS7 Change difference for rilzabrutinib vs. placebo LS Mean (95% CI) (400 mg BID, Week 11): −2.38 (−5.10, 0.33) | ISS7 Change from baseline LS Mean (SE) (400 mg BID, Week 11): −7.71 (1.02) | ISS7 % Change difference for rilzabrutinib vs. placebo LS Mean (95% CI) (400 mg BID, Week 12): −14.72 (−32.82, 3.38) % | ISS7 % Change from baseline LS Mean (SE) (400 mg BID, Week 12): −49.36 (6.89) % | ISS7 Change difference for rilzabrutinib vs. placebo LS Mean (95% CI) (400 mg BID, Week 12): −2.05 (−4.84, 0.74) | ISS7 Change from baseline LS Mean (SE) (400 mg BID, Week 12): −7.76 (1.06) | ISS7 % Change difference for rilzabrutinib vs. placebo LS Mean (95% CI) (400 mg QPM, Week 1): −8.32 (−26.56, 9.93) % | ISS7 % Change from baseline LS Mean (SE) (400 mg QPM, Week 1): −18.50 (5.54) % | ISS7 Change difference for rilzabrutinib vs. placebo LS Mean (95% CI) (400 mg QPM, Week 1): −1.34 (−3.99, 1.31) | ISS7 Change from baseline LS Mean (SE) (400 mg QPM, Week 1): −3.30 (0.81) | ISS7 % Change difference for rilzabrutinib vs. placebo LS Mean (95% CI) (400 mg QPM, Week 2): −5.38 (−19.96, 9.19) % | ISS7 % Change from baseline LS Mean (SE) (400 mg QPM, Week 2): −24.02 (5.36) % | ISS7 Change difference for rilzabrutinib vs. placebo LS Mean (95% CI) (400 mg QPM, Week 2): −0.80 (−2.97, 1.37) | ISS7 Change from baseline LS Mean (SE) (400 mg QPM, Week 2): −4.05 (0.80) | ISS7 % Change difference for rilzabrutinib vs. placebo LS Mean (95% CI) (400 mg QPM, Week 3): −8.25 (−23.04, 6.55) % | ISS7 % Change from baseline LS Mean (SE) (400 mg QPM, Week 3): −29.09 (5.42) % | ISS7 Change difference for rilzabrutinib vs. placebo LS Mean (95% CI) (400 mg QPM, Week 3): −1.30 (−3.54, 0.94) | ISS7 Change from baseline LS Mean (SE) (400 mg QPM, Week 3): −4.94 (0.82) | ISS7 % Change difference for rilzabrutinib vs. placebo LS Mean (95% CI) (400 mg QPM, Week 4): −6.69 (−22.35, 8.98) % | ISS7 % Change from baseline LS Mean (SE) (400 mg QPM, Week 4): −30.05 (5.74) % | ISS7 Change from baseline LS Mean (SE) (400 mg QPM, Week 4): −5.14 (0.87) | ISS7 % Change difference for rilzabrutinib vs. placebo LS Mean (95% CI) (400 mg QPM, Week 5): 1.87 (−13.30, 17.05) % | ISS7 % Change from baseline LS Mean (SE) (400 mg QPM, Week 5): −32.18 (5.54) % | ISS7 Change difference for rilzabrutinib vs. placebo LS Mean (95% CI) (400 mg QPM, Week 5): 0.20 (−2.17, 2.58) | ISS7 Change from baseline LS Mean (SE) (400 mg QPM, Week 5): −5.44 (0.87) | ISS7 % Change difference for rilzabrutinib vs. placebo LS Mean (95% CI) (400 mg QPM, Week 6): −8.22 (−24.84, 8.40) % | ISS7 % Change from baseline LS Mean (SE) (400 mg QPM, Week 6): −36.45 (6.05) %
